Assay results reported in PubChem BioAssay AID1347423 (Functional Genomics Laboratory (NCATS/FGL), 2020).
Hit rate of the full screen: of about 52,000 sequences, about 210 (0.4%) were called active.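 The calls were made as follows: active = gene whose silencing raises cell survival under the drug, median off-target-corrected z-score across its silencing RNAs 2 or more; inactive = the rest.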 The list shows a part of the results.

experiment: Resistance to Poly (ADP-Ribose) Polymerase inhibitor: Gene Identification via Genome-wide siRNA Screen; conditions: mouse BRCA2 R2336H ES cells, olaparib, CellTiter-Glo viability; hits give high values
How it was run: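 Mouse BRCA2 R2336H ES cells were reverse-transfected with siRNA (20 nM final), treated at 48 h with 500 nM olaparib, and read by CellTiter-Glo after 72 h. Scores: MAD-based z per siRNA, median per gene, seed off-target correction.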

| Sequence | z-score |
| --- | --- |
| GGCCAAGUUCCAUAUCACCTT against Eefsec | inactive: 1.24 |
| GGAUGUCUCGGCAUAGUUCTT against Edg2 | inactive: -0.0558 |
| CCUUCUCUCAUAACUCAUCTT against Rbak | inactive: -0.0622 |
| CCAAUGCUUGUGAUAAGCCTT against 2310015J09Rik | inactive: 0.413 |
| GGUUAAAAUGCCAUAACAATT against Ksr | inactive: -0.718 |
| GGAUUGAGAAUAUCUGAGUTT against H2-T3 | inactive: -0.572 |
| GGAGUUCGAGAAAGACAAATT against Eif4g3 | inactive: -1.35 |
| GCUUCUGCUAGAUGAAAAUTT against Rgs7 | inactive: -0.846 |
| GGUUUUUCUCUCUCUCAUUTT against Epas1 | inactive: 0.967 |
| CGGAAUGGUUCUUUCACAGTT against Adamts13 | inactive: -0.643 |
| GCAAAAGUUCCAAAAAUCCTT against Cryba1 | inactive: -0.508 |
| CCCAGAGCAUUCCUAUUACTT against 2310020F24Rik | inactive: -1.42 |
| GGAAUUCCUCUUCAACAUGTT against Hoxd9 | inactive: 0.144 |
| GGAUGUUUUAAUCUAAAGCTT against Ccdc3 | inactive: 0.652 |
| GGCUUUAAUGUGUCAGUACTT against Slc25a5 | inactive: 0.39 |
| GGCCAAUGACAGAACCUAUTT against Atp8b3 | inactive: 0.482 |
| CGUAUCUUAUAUCAGGAAATT against Trem1 | inactive: 0.666 |
| GCGGAGCAGAAUCUUCAUGTT against Olfr614 | inactive: -0.039 |
| GGUUGUUGUUUCGUAACAUTT against Cugbp2 | inactive: 0.196 |
| GGUGAGGAGGAAAUCCUGCTT against Rdh10 | inactive: 0.0216 |
| GGCGAGAAGGAAAUGUACATT against Arpc3 | inactive: -1.68 |
| GCAACUGGCUGAACUCUCATT against AI987692 | inactive: 1.32 |
| CCUCCAGUGGUAACAUUAGTT against Olfr301 | inactive: -1.79 |
| GGCUUAGUGCCUCUAAAAGTT against Aqp6 | inactive: 2.29 |
| GGCUCAAAGGCUACAGCAATT against Ctsw | inactive: 1.49 |
| GCAAGGGUUUGGUAGUAGGTT against Nup188 | inactive: 0.212 |

A run of entries from further up, for reference:

| Sequence | z-score |
| --- | --- |
| GGUUUUUCUCUCUCUCAUUTT against Epas1 | inactive: 0.967 |
| CGGAAUGGUUCUUUCACAGTT against Adamts13 | inactive: -0.643 |
| GCAAAAGUUCCAAAAAUCCTT against Cryba1 | inactive: -0.508 |
| CCCAGAGCAUUCCUAUUACTT against 2310020F24Rik | inactive: -1.42 |
| GGAAUUCCUCUUCAACAUGTT against Hoxd9 | inactive: 0.144 |

Following part

| Sequence | z-score |
| --- | --- |
| GGAGUAUCUUAGGAGUGAATT against A130042E20Rik | inactive: 1.18 |
| GGCUGACUCGCUUUCACCATT against Efna2 | inactive: 1.66 |
| CCAACACAUACCAACAGGUTT against 3100004P22Rik | inactive: -3.04 |
| GGUCUUCAUCUGUCCAACUTT against Tmlhe | inactive: 0.0829 |
| GGACCUGUGGUUGUUGUUCTT against Tll2 | inactive: 0.439 |
| GGGAUUAAACUGCUCUGUGTT against 1700019N19Rik | inactive: -0.891 |
| GGGUUGAUAGAAGUUUUUATT against Cpeb1 | inactive: -0.0714 |
| GCCGUCCUUACACCUUUAUTT against Olfr599 | inactive: -1.86 |
| GCAGAAAAGGUCUACGUGCTT against Azgp1 | inactive: 1.47 |
| GCUAAUUAAGAAGAGAGCATT against Gclc | inactive: -0.0138 |
| GGAAUACGAAAAGCAGGACTT against 1110004B13Rik | inactive: 1.72 |
| GGUUCCAGAUGUGAUCAGUTT against Tbc1d4 | inactive: -0.302 |
| GGGACUCGGAUAUUCGUGUTT against Adcy7 | inactive: 0.717 |
| GCUAUUGCUCGCAUCAAUGTT against 1700011K15Rik | inactive: -0.202 |
| GGAGGAUGCAAUUUUUAACTT against Sult1e1 | inactive: 0.845 |
| GUGUGGAAGGAAGAGGUUUTT against D730049H07Rik | inactive: -0.824 |
| CCGAAACCAGCGUAUCCUGTT against Cpn1 | inactive: -1.03 |
| GGAGAAGAAAGGUUACAUCTT against Calml4 | inactive: 0.15 |
| GCAGAAAUUAAGGCCUUAATT against Bicd1 | inactive: -2.84 |
| GGAUCAACCACAUCAGCUCTT against Hrh2 | inactive: 0.613 |
| GGAGGGUAUUAUUGACAUATT against Gnat1 | inactive: -0.371 |
| GCCAAUGAAUACUUGCCCATT against Farp2 | inactive: 0.166 |
| CCUUGACAACCAACAGAUUTT against 6230417E10Rik | inactive: -1.56 |
| GGUAGUCACUUUCAGAGGATT against A230103N10Rik | inactive: 1.78 |
| GGAGCUGGACGACUACUAUTT against Ing1 | inactive: -0.913 |
| CCCACUGAUGAUUACGUUCTT against Irf5 | inactive: 0.0428 |

| Sequence | z-score |
| --- | --- |
| GGACAUGUAUAAGAAGAUGTT against Itpka | inactive: -0.397 |
| GCUUAGACUCACCAAAGGCTT against Gpr26 | inactive: 1.11 |
| GGCUGGACUUUCAGCUGAUTT against Sema6d | inactive: -1.75 |
| GGACAAGAAGCAUCUUUCATT against Smpdl3a | inactive: -1.94 |
| CCCAGCUCUGUUUAAUGAUTT against Klf8 | inactive: 1.96 |
| CGAUGAGAGUCCACUCCCATT against BC038311 | inactive: 0.913 |
| CGAGCUCAGGCCUAUUAAATT against MGC92959 | inactive: 1.23 |
| GGGUAAAAGUAGCUGCCCUTT against Trp53inp2 | inactive: 0.295 |
| GGUGAUCUUAGUGGAGGGCTT against Ppox | inactive: 0.0198 |
| GGCUCCAGAAGGAACUUUCTT against Socs2 | inactive: 0.0215 |
| GGCAUGGACAAAGAGAAGGTT against Nol6 | inactive: -1.45 |
| GCAAAGUUAUUUCGCUUGGTT against Mgst2 | inactive: -1.1 |
| CCAAAUACGACUUACGAAATT against Ncam2 | inactive: 0.897 |
| GCUAUAGUUCUCUUUAGUCTT against Nr2c2 | inactive: 1.84 |
| GGCUAAAAAAGUCUCAGCCTT against Pbx2 | inactive: 1.02 |
| GGACAAGUUGUUGGACUACTT against Smarca3 | active: 1.04 |
| GGAGGAUAUUGGAACUGCCTT against BC004853 | inactive: 1.34 |
| GCGCUUCCAAUAACAAAAATT against 1700123L14Rik | inactive: 0.85 |
| GGCCUAAAGGCUUUGAUGATT against Nars | inactive: -0.365 |
| GGACAGACCACACUUCAUGTT against Foxp3 | inactive: -0.757 |
| GGUGAUCGUGGUGUGGAACTT against Extl2 | inactive: 0.328 |
| GGACGAGAGCACCUGAAAUTT against 4921525D22Rik | inactive: -0.976 |
| GCACUUCGAUGAGUUGUGCTT against Def6 | inactive: 1.38 |
| GGACUGAAGUCCUUGACACTT against Lgi3 | inactive: 0.511 |
| CCACGUGUCUUAGAAUUAATT against Gas1 | inactive: 1.56 |
| GGAGAGCAUCCUGAAGACGTT against C530009C10Rik | inactive: 0.344 |

An excerpt of these results, with each value named.
GGAUGUUUUAAUCUAAAGCTT against Ccdc3
  z-score: inactive: 0.652
GGCUUUAAUGUGUCAGUACTT against Slc25a5
  z-score: inactive: 0.39

The results go on:

| Sequence | z-score |
| --- | --- |
| CGUGUCCUGACCUUUCAACTT against Il22ra1 | inactive: -0.34 |
| GGUUCAAGGCAUUUUCUACTT against Olfr715 | inactive: -0.157 |
| GGACAAUUACAACACUCAATT against D930036B08Rik | inactive: -1.31 |
| GGAAUUGAGGUGAUGGAUATT against Sfxn4 | inactive: -0.921 |
| GGAACUACCUUGAAGAGGATT against ORF18 | inactive: -0.63 |
| CCAGGUUCUAUCUACCUACTT against 9830123M21Rik | inactive: -0.16 |
| CCGUUGACAGAACAGUCCUTT against Vegfa | inactive: -1.65 |
| CCUCACAGGCCUACGACAATT against Csrp2 | inactive: 0.544 |
| GCAAUAGACAUUCAUCAGATT against Serpinb9c | inactive: -0.367 |
| GGAUUUGACUAACAUAGGGTT against 6720460F02Rik | inactive: 0.0823 |
| GGGUUAAUUCCAGAAACUATT against D930020E02Rik | inactive: -1.57 |
| CCAUCUCUAGAGCAAGACUTT against Cs | inactive: -0.115 |
| GGAGAAAGCUGCUCAUGAATT against Caml | inactive: 2.51 |
| GGUUGAUCCAAAAGAUUACTT against Rp2h | inactive: 0.343 |
| GCUACAGGAUUACAUGGUCTT against BC020535 | inactive: -0.461 |
| CCACAAAUGAGCGCAGAGUTT against Erg | inactive: 0.0757 |
| GGACAGAAUUAAGGAUGUCTT against Fdxr | inactive: 0.103 |
| GGUGUUGUAAAAUUCCUCATT against 9030406N13Rik | inactive: -0.0303 |
| GGCAUGAGUUCUACCUUCUTT against Tssc4 | inactive: 0.667 |
| GGCCUUGGAACUUAAACGGTT against Dhdds | inactive: 0.715 |
| CCCAUUAAUUCGACAACUATT against Ppp1r1c | inactive: -1.36 |
| GGAAAGUGUUGUUUAAGAATT against 1500019C06Rik | inactive: 0.777 |
| GGUUGUGACAAUGUGGUACTT against Coro1b | inactive: 0.097 |
| GGGUCCUACAAAAAAAAAATT against D4Wsu114e | inactive: 0.806 |
| GCAAAUGGAUAACUUGUACTT against Epas1 | inactive: 0.585 |
| CCUCUGCUUUGUUACUUCCTT against Olfr1431 | inactive: -0.343 |
